Our source for the binding values is article PMC12561377.

The chains behind the UniProt entries cited, without tags or fusion partners. Where a name states a change or a piece, a line headed by the entry shows the natural chain unless it says otherwise.
UniProt P11142: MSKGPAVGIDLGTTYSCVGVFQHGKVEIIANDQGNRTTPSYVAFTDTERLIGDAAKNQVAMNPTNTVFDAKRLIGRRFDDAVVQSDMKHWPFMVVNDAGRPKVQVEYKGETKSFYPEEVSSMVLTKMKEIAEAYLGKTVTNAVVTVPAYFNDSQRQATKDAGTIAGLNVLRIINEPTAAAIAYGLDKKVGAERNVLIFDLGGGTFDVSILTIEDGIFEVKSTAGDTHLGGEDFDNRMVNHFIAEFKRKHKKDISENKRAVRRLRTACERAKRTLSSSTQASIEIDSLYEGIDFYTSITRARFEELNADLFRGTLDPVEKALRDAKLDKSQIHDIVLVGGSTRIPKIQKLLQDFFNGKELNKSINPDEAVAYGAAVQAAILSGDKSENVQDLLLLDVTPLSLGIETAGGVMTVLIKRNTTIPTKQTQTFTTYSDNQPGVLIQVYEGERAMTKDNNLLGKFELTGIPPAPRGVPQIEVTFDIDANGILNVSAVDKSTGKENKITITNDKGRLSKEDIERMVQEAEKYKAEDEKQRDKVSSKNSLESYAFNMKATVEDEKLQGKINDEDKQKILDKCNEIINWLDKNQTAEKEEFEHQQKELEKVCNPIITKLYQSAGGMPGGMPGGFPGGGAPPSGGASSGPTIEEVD

The target of experiment [1] is T1, histone deacetylase 8 (HDAC8) (human (endogenous in Huh7 and Hep3B)) (UniProt Q9BY41).
T1 sequence: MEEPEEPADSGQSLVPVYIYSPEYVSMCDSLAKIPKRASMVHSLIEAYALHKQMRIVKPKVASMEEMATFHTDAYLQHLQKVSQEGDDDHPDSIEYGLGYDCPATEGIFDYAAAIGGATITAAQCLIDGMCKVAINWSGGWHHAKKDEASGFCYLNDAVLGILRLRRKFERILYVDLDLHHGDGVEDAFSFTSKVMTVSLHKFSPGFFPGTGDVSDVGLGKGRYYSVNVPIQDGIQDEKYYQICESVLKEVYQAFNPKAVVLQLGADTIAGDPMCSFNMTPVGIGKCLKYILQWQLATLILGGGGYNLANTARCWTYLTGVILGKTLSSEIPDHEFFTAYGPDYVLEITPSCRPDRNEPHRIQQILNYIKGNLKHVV
Put plainly: co-IP; endogenous proteins, Huh7 and Hep3B lysates in RIPA buffer; magnetic beads precoated with specific antibodies, 4 °C overnight, washed 6 times, Western blot. In general terms: In western blotting, separated proteins are transferred to a membrane and probed.

The next experiment deals with T2, Flag‐HDAC8 C244S (UniProt Q9BY41).
T2 sequence: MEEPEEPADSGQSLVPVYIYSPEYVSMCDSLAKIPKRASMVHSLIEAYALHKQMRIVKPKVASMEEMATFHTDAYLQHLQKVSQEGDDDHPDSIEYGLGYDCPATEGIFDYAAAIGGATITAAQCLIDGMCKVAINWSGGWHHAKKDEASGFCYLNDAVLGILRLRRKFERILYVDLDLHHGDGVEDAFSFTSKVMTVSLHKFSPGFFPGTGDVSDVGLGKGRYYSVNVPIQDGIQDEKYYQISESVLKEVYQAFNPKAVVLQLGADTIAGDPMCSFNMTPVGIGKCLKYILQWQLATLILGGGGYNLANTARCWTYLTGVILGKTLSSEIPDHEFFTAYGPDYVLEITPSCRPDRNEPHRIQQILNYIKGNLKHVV
Put plainly: co-IP; Huh7 and Hep3B cells transfected for 24 h and treated with NH4Cl for 8 h; immunoprecipitation with anti‐Flag antibody, Western blot.

Experiment [2] concerns the target T3, HDAC8 (construct transfected into 293T cells) (UniProt Q9BY41).
T3 sequence: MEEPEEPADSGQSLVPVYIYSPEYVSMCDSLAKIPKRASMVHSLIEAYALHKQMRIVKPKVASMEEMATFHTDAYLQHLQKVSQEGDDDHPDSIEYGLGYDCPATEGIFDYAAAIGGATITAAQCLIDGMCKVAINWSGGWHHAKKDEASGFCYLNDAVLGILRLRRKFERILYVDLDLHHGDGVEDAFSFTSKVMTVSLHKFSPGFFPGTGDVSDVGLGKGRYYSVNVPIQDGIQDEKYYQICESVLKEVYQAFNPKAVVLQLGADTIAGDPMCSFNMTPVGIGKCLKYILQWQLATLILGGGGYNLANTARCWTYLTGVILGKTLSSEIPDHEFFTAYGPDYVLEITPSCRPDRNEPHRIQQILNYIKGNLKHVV
Put plainly: co-IP; 293T cells transfected with the indicated constructs for 24 h; RIPA lysates, magnetic beads precoated with specific antibodies, 4 °C overnight, Western blot.

The target of experiment [3] is T4, GST-HDAC8 (recombinant protein of HDAC8) (UniProt Q9BY41).
T4 sequence: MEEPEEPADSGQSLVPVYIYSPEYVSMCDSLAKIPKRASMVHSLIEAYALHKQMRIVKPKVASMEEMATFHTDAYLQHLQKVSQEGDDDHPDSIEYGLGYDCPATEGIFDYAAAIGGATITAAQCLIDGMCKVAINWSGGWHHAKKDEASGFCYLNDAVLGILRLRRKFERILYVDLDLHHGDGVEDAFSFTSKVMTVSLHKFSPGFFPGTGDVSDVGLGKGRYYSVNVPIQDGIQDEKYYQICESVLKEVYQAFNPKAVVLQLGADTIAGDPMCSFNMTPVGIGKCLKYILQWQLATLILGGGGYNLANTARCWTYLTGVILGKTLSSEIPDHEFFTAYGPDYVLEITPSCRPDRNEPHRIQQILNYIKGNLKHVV
The experiment in a line: pull-down; GST fusion protein from E. coli BL21 captured on glutathione‐agarose beads, washed, incubated with cell lysate of the other protein overnight at 4 °C; only the target purified.

The target of experiment [4] is T5, zinc finger DHHC‐type palmitoyltransferase 12 (ZDHHC12) (human (endogenous in Huh7 and Hep3B)) (UniProt Q96GR4).
T5 sequence: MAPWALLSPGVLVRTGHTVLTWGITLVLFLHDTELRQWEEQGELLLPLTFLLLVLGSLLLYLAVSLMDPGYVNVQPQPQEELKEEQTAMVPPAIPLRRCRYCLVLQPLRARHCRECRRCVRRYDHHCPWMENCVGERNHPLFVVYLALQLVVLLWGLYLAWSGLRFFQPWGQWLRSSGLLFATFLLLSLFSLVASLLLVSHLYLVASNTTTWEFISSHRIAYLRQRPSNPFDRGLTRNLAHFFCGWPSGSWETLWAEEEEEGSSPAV
Put plainly: co-IP; endogenous proteins, Huh7 and Hep3B lysates in RIPA buffer; magnetic beads precoated with specific antibodies, 4 °C overnight, washed 6 times, Western blot.

In experiment [5] the target is T5, zinc finger DHHC‐type palmitoyltransferase 12 (ZDHHC12) (human (endogenous in Huh7 and Hep3B)). Put plainly: proximity ligation; Duolink in situ PLA in fixed and permeabilised Huh7 cells with the indicated antibodies.
Experiment [6] deals with T6, ZDHHC12 (construct transfected into 293T cells) (UniProt Q96GR4).
T6 sequence: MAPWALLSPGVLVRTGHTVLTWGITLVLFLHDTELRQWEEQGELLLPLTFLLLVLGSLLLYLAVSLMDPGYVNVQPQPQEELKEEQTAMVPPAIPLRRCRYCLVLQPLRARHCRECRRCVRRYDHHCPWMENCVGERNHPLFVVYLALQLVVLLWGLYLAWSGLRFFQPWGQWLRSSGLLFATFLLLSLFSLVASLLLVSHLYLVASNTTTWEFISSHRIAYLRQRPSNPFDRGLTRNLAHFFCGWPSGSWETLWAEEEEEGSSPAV
Put plainly: co-IP; 293T cells transfected with the indicated constructs for 24 h; RIPA lysates, magnetic beads precoated with specific antibodies, 4 °C overnight, Western blot.

No constants are given. Whether binding was seen depends on the method and setting. Binding seen in cells or lysates may run through a third protein. Some binding calls cover weakened binding; strength is not graded here. For some of these results: Where a sequence is shown, tags or fusion partners need not be part of it.

In the case of HSC70 (from UniProt P11142 1-646), the binding entry (in experiment [1]; in the experiment with Flag‐HDAC8 C244S) was “binds” in each case. Regarding “HSC70 (construct transfected into 293T cells) (from UniProt P11142 1-646)”, in experiment [2], the binding result is “binds”.

B1: ZDHHC12 (in the cell lysate used for the GST pull-down) (enzyme, UniProt Q96GR4 1-267)
chain: MAPWALLSPGVLVRTGHTVLTWGITLVLFLHDTELRQWEEQGELLLPLTFLLLVLGSLLLYLAVSLMDPGYVNVQPQPQEELKEEQTAMVPPAIPLRRCRYCLVLQPLRARHCRECRRCVRRYDHHCPWMENCVGERNHPLFVVYLALQLVVLLWGLYLAWSGLRFFQPWGQWLRSSGLLFATFLLLSLFSLVASLLLVSHLYLVASNTTTWEFISSHRIAYLRQRPSNPFDRGLTRNLAHFFCGWPSGSWETLWAEEEEEGSSPAV
Regarding B1, the binding result in experiment [3] is recorded as “binds”.

B2: histone deacetylase 8 (HDAC8) (enzyme, UniProt Q9BY41 1-377)
chain: MEEPEEPADSGQSLVPVYIYSPEYVSMCDSLAKIPKRASMVHSLIEAYALHKQMRIVKPKVASMEEMATFHTDAYLQHLQKVSQEGDDDHPDSIEYGLGYDCPATEGIFDYAAAIGGATITAAQCLIDGMCKVAINWSGGWHHAKKDEASGFCYLNDAVLGILRLRRKFERILYVDLDLHHGDGVEDAFSFTSKVMTVSLHKFSPGFFPGTGDVSDVGLGKGRYYSVNVPIQDGIQDEKYYQICESVLKEVYQAFNPKAVVLQLGADTIAGDPMCSFNMTPVGIGKCLKYILQWQLATLILGGGGYNLANTARCWTYLTGVILGKTLSSEIPDHEFFTAYGPDYVLEITPSCRPDRNEPHRIQQILNYIKGNLKHVV
As to B2, the binding result in experiment [4] and in experiment [5] was “binds” in each case.

B3: HDAC8 (construct transfected into 293T cells) (enzyme, UniProt Q9BY41 1-377)
chain: MEEPEEPADSGQSLVPVYIYSPEYVSMCDSLAKIPKRASMVHSLIEAYALHKQMRIVKPKVASMEEMATFHTDAYLQHLQKVSQEGDDDHPDSIEYGLGYDCPATEGIFDYAAAIGGATITAAQCLIDGMCKVAINWSGGWHHAKKDEASGFCYLNDAVLGILRLRRKFERILYVDLDLHHGDGVEDAFSFTSKVMTVSLHKFSPGFFPGTGDVSDVGLGKGRYYSVNVPIQDGIQDEKYYQICESVLKEVYQAFNPKAVVLQLGADTIAGDPMCSFNMTPVGIGKCLKYILQWQLATLILGGGGYNLANTARCWTYLTGVILGKTLSSEIPDHEFFTAYGPDYVLEITPSCRPDRNEPHRIQQILNYIKGNLKHVV
Turning to B3, the binding entry in experiment [6] is “binds”.
